From the supplement of paper PMC12819154, “High-throughput peptide-centric local stability assay extends protein–ligand identification to membrane proteins, tissues and bacteria” (Nature Structural & Molecular Biology, 2025)
Some of the results follow. Most entries show no effect beyond the scatter of the controls.

Protein sequences, listed by entry. Tags and fused reporters are not part of them. Lines headed by an entry give the natural chain unless they say otherwise; changes in a name come on top.
UniProt Q7TT18: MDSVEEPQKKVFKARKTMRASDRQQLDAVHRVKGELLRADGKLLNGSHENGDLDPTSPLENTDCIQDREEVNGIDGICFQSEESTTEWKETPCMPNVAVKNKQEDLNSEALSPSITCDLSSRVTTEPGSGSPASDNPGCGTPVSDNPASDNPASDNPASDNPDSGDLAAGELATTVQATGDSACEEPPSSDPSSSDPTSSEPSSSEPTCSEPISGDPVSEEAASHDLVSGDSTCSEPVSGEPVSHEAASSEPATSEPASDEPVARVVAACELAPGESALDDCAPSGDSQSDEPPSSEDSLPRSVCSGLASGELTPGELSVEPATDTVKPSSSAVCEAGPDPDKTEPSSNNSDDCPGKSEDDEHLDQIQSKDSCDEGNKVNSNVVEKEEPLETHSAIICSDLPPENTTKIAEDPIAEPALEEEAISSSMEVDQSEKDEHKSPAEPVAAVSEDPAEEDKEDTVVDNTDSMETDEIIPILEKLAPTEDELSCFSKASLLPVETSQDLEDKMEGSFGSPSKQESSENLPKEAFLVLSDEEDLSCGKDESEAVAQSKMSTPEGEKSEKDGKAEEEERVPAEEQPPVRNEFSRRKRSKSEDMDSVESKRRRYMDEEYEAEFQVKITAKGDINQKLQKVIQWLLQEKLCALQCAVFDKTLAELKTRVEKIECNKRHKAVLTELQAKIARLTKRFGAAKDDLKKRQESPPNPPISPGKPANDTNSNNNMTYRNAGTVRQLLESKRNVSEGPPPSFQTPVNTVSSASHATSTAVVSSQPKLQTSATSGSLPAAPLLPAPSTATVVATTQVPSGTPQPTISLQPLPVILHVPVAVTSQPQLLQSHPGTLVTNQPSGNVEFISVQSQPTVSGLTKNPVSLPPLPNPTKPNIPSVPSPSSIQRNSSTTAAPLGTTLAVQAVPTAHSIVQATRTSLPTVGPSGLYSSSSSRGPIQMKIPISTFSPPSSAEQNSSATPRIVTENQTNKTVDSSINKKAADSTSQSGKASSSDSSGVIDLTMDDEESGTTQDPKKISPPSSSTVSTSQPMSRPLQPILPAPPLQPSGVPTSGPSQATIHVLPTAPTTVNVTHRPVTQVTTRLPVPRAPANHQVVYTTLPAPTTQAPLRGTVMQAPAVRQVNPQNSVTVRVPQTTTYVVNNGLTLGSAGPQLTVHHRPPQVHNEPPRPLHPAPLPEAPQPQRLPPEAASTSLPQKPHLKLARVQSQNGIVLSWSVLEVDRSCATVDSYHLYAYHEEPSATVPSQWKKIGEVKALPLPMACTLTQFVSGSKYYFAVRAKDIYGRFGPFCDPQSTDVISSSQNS
UniProt Q78IK2: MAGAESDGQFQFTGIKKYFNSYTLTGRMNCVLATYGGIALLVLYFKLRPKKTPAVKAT
UniProt Q7TMF2: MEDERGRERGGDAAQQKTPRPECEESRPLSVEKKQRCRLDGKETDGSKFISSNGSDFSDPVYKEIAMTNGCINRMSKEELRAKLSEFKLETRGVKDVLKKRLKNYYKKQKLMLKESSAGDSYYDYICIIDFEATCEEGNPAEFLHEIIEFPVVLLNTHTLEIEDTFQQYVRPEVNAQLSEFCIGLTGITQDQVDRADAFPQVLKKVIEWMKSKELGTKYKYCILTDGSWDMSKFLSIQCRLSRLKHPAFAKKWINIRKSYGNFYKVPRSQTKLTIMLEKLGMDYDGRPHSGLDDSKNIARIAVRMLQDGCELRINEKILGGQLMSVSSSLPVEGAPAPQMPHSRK
UniProt Q78PG9: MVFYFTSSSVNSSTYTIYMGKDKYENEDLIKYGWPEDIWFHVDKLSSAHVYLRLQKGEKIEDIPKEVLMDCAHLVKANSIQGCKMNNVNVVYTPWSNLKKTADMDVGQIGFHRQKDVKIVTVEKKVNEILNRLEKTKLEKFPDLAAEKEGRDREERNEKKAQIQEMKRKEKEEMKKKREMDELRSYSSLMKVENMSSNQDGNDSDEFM
UniProt Q7TQK1, whole entry: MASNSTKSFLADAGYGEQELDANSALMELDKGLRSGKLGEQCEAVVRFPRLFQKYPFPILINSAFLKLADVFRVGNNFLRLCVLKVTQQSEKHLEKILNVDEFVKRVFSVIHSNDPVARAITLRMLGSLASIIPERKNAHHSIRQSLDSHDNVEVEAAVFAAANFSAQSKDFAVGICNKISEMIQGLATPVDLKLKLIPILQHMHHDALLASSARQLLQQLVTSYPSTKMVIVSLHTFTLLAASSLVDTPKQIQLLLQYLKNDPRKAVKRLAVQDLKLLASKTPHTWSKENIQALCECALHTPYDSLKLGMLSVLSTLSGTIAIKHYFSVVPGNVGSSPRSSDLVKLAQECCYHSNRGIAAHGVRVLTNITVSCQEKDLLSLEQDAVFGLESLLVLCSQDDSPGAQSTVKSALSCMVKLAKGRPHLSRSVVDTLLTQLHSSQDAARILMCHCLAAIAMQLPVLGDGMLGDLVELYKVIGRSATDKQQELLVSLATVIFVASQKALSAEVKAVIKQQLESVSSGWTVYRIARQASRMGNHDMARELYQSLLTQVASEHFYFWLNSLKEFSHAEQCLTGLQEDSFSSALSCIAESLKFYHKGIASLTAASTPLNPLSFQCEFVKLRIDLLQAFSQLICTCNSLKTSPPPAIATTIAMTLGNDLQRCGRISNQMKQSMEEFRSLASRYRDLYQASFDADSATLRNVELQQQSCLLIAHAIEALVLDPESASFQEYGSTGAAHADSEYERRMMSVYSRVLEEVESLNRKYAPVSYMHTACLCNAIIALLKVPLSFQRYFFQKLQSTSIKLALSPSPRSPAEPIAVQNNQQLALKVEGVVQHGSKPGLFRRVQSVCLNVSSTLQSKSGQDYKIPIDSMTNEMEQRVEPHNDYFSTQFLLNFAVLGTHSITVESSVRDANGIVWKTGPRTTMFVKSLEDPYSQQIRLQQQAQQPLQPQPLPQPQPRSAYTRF
UniProt Q6Y5D8: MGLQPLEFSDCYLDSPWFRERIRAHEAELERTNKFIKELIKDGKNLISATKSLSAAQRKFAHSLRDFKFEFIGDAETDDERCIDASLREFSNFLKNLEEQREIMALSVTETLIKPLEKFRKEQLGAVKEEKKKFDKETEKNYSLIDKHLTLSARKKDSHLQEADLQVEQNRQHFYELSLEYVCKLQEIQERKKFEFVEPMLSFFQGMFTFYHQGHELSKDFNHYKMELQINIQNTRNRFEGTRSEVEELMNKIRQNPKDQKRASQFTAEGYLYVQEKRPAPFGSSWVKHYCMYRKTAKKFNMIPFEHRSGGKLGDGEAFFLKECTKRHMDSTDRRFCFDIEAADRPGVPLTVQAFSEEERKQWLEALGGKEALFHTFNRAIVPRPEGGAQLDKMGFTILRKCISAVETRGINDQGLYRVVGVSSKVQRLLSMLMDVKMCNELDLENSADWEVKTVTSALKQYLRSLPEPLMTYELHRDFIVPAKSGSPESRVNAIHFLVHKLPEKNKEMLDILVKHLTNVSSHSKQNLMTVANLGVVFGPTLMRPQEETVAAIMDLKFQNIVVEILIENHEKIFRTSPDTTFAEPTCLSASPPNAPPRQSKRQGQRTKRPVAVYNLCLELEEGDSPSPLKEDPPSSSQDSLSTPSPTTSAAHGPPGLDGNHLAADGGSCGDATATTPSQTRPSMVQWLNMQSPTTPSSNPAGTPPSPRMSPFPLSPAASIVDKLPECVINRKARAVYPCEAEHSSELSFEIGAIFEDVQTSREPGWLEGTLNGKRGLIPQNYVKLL
UniProt Q80T19: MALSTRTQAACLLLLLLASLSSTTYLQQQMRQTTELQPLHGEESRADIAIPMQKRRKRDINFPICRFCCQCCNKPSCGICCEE
UniProt Q6ZPZ3: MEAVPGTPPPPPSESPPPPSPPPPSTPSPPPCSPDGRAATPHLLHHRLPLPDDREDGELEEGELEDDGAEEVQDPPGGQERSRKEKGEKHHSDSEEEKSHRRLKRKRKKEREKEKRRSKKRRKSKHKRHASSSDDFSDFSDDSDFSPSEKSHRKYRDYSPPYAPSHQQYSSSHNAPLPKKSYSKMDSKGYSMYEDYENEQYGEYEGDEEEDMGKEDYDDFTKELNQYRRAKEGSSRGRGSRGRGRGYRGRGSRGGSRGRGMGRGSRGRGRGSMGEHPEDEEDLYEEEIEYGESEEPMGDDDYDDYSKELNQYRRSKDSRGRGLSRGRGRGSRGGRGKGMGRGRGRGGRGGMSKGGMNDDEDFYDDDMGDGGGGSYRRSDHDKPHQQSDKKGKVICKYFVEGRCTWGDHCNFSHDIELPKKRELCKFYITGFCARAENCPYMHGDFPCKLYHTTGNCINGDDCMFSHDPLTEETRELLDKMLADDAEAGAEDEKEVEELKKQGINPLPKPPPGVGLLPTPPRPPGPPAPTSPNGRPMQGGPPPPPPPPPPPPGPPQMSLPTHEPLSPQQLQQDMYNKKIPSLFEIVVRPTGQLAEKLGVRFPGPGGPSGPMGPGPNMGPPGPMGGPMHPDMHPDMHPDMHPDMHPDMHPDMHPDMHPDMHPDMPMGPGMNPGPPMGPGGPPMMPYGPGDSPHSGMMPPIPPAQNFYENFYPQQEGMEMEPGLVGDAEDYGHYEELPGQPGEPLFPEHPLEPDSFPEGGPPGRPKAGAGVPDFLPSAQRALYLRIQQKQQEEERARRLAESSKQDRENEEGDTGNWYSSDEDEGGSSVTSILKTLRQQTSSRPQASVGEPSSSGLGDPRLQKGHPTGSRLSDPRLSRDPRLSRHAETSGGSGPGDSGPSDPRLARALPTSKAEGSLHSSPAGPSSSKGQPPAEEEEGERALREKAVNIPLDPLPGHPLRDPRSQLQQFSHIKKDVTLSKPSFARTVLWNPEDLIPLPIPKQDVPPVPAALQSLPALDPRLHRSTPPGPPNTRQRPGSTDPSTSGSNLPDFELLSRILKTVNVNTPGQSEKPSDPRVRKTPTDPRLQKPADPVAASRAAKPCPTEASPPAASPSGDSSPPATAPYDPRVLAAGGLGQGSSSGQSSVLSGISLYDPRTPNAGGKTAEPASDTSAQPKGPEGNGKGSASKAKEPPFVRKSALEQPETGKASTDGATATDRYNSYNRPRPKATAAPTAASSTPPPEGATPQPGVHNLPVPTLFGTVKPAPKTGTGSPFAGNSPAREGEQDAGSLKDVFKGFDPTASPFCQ
UniProt Q6ZQF0, whole entry: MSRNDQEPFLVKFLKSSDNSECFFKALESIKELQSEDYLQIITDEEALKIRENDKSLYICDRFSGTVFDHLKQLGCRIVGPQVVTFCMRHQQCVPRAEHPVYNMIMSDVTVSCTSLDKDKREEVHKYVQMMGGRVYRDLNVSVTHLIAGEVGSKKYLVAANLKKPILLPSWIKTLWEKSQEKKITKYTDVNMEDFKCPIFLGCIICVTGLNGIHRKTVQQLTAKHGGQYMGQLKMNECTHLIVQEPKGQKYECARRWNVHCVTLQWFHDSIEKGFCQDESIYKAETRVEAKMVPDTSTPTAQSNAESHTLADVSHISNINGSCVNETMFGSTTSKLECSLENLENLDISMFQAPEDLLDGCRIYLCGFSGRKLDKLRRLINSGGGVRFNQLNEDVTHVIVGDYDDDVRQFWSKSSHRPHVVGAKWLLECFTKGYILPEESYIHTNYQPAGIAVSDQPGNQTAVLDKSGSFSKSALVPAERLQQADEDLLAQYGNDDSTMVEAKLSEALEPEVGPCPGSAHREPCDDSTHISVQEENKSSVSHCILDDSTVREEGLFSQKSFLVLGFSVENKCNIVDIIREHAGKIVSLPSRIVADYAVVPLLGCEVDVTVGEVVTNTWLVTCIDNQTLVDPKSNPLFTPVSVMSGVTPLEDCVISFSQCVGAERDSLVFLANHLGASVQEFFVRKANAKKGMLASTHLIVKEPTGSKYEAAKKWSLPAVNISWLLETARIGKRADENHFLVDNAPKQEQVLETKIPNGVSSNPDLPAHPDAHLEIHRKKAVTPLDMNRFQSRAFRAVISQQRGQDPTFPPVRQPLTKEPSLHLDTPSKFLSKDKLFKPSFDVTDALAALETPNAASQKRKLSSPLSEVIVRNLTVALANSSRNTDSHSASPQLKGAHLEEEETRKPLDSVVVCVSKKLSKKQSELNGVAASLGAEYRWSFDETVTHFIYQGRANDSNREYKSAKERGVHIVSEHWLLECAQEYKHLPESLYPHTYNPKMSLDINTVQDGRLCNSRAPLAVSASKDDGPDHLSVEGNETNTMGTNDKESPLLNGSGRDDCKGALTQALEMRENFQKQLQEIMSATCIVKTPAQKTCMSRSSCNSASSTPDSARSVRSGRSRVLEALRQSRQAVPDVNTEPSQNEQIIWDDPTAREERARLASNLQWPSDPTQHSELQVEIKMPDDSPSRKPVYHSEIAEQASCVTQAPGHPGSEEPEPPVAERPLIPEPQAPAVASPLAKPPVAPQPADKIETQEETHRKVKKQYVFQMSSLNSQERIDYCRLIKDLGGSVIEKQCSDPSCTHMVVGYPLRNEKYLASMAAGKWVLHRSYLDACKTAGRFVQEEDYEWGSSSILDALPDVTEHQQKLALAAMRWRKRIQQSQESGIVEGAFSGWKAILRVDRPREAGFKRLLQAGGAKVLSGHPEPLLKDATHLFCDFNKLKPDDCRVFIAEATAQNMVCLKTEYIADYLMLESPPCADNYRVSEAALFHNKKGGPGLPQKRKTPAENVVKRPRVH

These targets were tested with CN[C@@H]1C[C@H]2O[C@@](C)([C@@H]1OC)n1c3ccccc3c3c4c(c5c6ccccc6n2c5c31)C(=O)NC4 [staurosporine] (assay: log2 fold change of tryptic peptide abundance, ligand vs vehicle (limited proteolysis) (log2 ratio); higher = more trypsin-susceptible (destabilized)). Details: ligand concentration: 20 uM; sample: mouse liver crude lysate; replicate design: treated separately.
“UniProt Q7TT18 (peptide sequence: FGAAKDDLK, peptide start residue: 687)” was tested, and the log2 fold change was 0.3.
“UniProt Q7TMW6 (peptide sequence: LLHTQYHAVEKPSSGLSIR, peptide start residue: 457)” was tested, and the log2 fold change was -0.501.
Work on “UniProt Q7TMM8 (peptide sequence: HDCKDFEALLADTGRLPNLK, peptide start residue: 50)” yielded a log2 fold change of -0.278.
In the case of “UniProt Q78IK2 (peptide sequence: AGAESDGQFQFTGIKK, peptide start residue: 2)”, the log2 fold change is reported as 0.134.
“UniProt Q7TQI3 (peptide sequence: VYLLYRPGHYDILYK, peptide start residue: 257)” was tested, and the log2 fold change was -0.275.
“UniProt Q80TH2 (peptide sequence: LKDEETNEESGR, peptide start residue: 505)” showed a log2 fold change of -0.287.
“UniProt Q7TMF2 (peptide sequence: LKNYYKK, peptide start residue: 102)” gave a log2 fold change of -0.506.
“UniProt Q7TSI3 (peptide sequence: VMGILINR, peptide start residue: 127)” gave a log2 fold change of 0.527.
“UniProt Q7TN73 (peptide sequence: NKPCTDLESGEEKK, peptide start residue: 341)” showed a log2 fold change of 0.178.
“UniProt Q80T85 (peptide sequence: EACLTATAQR, peptide start residue: 709)” showed a log2 fold change of 0.245.
“UniProt Q78PG9 (peptide sequence: EVLMDCAHLVK, peptide start residue: 66)” gave a log2 fold change of 0.275.
For “UniProt Q76N33 (peptide sequence: FITLFVEKLPSHR, peptide start residue: 81)”, the log2 fold change was 0.141.
For “UniProt Q7TQK1 (peptide sequence: VFSVIHSNDPVAR, peptide start residue: 107)”, the log2 fold change was 0.565.
In the case of “UniProt Q6ZQ29 (peptide sequence: HSLDQDLLREDLNKK, peptide start residue: 662)”, the log2 fold change is reported as 0.601.
“UniProt Q7TQG0 (peptide sequence: SFSDPQSSTDR, peptide start residue: 373)” showed a log2 fold change of -0.185.
For “UniProt Q6ZPF4 (peptide sequence: LGLEEFLQK, peptide start residue: 350)”, the log2 fold change was -0.304.
“UniProt Q6Y5D8 (peptide sequence: AHEAELER, peptide start residue: 24)” was tested, and the log2 fold change was -0.333.
With “UniProt Q7TNB8 (peptide sequence: VVSRPDGTVVFESR, peptide start residue: 751)” the log2 fold change was -0.463.
In the case of “UniProt Q80T19 (peptide sequence: QTTELQPLHGEESR, peptide start residue: 32)”, the log2 fold change is reported as -0.112.
Work on “UniProt Q6XBJ3 (peptide sequence: MLSPNFDAHHTAMLTR, peptide start residue: 258)” yielded a log2 fold change of 0.642.
In the case of “UniProt Q76KJ5 (peptide sequence: TALGNLGVSVK, peptide start residue: 203)”, the log2 fold change is reported as -0.289.
In the case of “UniProt Q80TZ9 (peptide sequence: CNISHFSDIFAAR, peptide start residue: 245)”, the log2 fold change is reported as -0.289.
Work on “UniProt Q6ZPZ3 (peptide sequence: KDVTLSKPSFAR, peptide start residue: 971)” yielded a log2 fold change of 0.308.
For “UniProt Q7TNP2 (peptide sequence: YMVADKFSELQK, peptide start residue: 273)”, the log2 fold change was -0.228.
Target “UniProt Q6ZPR5 (peptide sequence: HISHQTSVNADPASHEIWR, peptide start residue: 239)” has a log2 fold change of -0.407.
“UniProt Q6ZQF0 (peptide sequence: YLVAANLK, peptide start residue: 156)” showed a log2 fold change of -0.00553.
Work on “UniProt Q6ZPE2 (peptide sequence: NTLSSFSSAHMGGHGK, peptide start residue: 1262)” yielded a log2 fold change of -0.338.
“UniProt Q7TT37 (peptide sequence: KLDLICDAMR, peptide start residue: 816)” was tested, and the log2 fold change was 0.594.
In the case of “UniProt Q78RX3 (peptide sequence: KLDEMLGK, peptide start residue: 57)”, the log2 fold change is reported as 0.0827.
